The supplement of paper PMC7666118
The other results are listed elsewhere or left out.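 How the source made its calls: active = dose-dependent thermal stabilisation significant by F-test of dose-response against flat model at 10% FDR; inactive = not significant.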

Sequences of proteins named here, by UniProt entry; tags and fusion partners are left off. A change or cut given only in a name is not applied to a line headed by its entry.
UniProt Q8WU39: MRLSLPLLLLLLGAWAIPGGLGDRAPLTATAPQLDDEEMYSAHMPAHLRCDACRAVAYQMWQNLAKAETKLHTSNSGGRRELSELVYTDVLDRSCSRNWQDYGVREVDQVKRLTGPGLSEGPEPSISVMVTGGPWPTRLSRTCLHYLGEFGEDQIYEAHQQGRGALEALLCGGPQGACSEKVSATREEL
UniProt Q15773: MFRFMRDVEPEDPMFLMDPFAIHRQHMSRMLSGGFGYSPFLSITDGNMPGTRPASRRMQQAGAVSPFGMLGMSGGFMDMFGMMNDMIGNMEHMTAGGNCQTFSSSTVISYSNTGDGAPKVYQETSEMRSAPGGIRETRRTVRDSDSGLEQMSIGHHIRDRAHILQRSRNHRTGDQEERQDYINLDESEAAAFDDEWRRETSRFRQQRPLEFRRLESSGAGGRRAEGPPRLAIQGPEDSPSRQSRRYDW
UniProt O96033: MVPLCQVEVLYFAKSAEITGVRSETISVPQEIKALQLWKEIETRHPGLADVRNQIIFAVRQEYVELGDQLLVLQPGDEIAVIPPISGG
UniProt Q969V6: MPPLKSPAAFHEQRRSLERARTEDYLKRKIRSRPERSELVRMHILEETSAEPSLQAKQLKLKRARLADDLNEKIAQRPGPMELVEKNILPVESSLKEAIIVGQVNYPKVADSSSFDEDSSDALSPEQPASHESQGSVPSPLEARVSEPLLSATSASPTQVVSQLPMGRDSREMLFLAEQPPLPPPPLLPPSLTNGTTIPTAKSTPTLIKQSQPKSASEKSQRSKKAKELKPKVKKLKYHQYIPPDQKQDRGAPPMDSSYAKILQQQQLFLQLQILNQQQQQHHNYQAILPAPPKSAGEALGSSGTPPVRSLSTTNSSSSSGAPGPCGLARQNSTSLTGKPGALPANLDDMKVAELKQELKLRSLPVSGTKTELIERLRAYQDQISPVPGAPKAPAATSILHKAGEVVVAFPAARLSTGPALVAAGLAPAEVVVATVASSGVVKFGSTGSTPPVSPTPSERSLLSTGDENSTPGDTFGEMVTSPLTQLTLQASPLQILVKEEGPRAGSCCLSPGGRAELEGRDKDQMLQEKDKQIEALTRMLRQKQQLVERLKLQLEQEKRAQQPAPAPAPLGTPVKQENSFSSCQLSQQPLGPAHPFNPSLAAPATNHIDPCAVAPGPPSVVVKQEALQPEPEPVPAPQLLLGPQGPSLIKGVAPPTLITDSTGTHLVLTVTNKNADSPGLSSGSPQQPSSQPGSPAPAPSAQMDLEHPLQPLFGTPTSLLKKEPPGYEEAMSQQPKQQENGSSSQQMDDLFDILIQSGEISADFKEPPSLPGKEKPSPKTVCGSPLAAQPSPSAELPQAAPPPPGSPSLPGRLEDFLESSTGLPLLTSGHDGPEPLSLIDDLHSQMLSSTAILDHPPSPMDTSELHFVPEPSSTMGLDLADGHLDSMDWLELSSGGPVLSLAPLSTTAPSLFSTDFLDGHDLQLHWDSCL
UniProt Q13459: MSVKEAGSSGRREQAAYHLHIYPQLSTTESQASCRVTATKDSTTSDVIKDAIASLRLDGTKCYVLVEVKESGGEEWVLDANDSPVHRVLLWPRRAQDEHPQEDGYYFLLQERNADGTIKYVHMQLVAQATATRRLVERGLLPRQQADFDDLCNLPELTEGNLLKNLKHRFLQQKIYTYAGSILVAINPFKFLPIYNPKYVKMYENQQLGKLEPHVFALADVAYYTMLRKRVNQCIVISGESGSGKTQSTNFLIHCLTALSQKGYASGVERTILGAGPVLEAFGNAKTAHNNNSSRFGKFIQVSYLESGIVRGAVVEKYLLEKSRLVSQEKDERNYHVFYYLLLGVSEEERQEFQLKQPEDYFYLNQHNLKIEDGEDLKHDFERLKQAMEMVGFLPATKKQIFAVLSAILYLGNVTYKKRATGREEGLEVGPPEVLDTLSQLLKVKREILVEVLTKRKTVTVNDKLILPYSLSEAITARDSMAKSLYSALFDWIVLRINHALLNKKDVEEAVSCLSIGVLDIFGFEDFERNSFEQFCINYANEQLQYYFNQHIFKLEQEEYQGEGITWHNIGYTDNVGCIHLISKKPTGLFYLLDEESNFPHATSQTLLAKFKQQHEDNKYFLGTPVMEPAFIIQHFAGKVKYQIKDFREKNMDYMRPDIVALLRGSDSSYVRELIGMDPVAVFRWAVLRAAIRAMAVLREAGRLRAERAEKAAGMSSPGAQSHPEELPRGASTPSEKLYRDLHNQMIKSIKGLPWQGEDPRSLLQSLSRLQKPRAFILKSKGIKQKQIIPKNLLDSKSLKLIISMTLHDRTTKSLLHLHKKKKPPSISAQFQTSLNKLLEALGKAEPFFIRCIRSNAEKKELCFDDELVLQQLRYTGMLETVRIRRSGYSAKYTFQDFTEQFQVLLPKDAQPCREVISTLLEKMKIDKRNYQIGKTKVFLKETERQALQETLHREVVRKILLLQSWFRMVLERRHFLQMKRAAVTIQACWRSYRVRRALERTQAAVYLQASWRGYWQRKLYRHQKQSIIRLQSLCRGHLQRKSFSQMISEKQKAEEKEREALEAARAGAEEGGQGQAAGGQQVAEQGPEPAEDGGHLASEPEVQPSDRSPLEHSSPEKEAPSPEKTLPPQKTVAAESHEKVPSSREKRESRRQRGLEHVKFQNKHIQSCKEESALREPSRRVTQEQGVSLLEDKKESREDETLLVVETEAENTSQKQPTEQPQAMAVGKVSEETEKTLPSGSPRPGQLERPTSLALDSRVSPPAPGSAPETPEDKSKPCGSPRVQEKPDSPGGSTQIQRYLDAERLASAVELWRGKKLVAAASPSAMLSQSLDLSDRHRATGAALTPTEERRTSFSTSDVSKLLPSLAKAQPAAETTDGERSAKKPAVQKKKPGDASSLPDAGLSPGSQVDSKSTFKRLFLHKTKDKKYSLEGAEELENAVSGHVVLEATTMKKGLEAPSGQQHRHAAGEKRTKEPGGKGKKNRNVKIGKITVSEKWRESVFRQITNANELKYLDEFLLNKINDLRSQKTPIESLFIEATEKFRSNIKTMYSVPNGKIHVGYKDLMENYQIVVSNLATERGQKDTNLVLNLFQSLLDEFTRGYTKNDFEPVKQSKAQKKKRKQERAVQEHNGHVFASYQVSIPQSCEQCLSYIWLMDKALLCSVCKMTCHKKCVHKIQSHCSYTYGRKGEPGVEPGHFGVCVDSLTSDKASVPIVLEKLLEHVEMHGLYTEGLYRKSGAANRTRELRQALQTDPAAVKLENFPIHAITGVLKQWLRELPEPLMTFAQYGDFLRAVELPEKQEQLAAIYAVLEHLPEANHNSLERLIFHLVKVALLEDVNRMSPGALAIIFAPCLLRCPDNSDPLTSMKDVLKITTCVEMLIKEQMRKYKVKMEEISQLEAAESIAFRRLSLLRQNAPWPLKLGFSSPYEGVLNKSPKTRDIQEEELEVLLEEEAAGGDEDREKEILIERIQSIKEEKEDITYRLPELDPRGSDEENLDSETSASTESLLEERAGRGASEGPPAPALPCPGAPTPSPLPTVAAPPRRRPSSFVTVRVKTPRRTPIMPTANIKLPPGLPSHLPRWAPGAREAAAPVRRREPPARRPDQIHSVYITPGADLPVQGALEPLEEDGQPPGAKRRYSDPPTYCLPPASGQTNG
UniProt Q99583: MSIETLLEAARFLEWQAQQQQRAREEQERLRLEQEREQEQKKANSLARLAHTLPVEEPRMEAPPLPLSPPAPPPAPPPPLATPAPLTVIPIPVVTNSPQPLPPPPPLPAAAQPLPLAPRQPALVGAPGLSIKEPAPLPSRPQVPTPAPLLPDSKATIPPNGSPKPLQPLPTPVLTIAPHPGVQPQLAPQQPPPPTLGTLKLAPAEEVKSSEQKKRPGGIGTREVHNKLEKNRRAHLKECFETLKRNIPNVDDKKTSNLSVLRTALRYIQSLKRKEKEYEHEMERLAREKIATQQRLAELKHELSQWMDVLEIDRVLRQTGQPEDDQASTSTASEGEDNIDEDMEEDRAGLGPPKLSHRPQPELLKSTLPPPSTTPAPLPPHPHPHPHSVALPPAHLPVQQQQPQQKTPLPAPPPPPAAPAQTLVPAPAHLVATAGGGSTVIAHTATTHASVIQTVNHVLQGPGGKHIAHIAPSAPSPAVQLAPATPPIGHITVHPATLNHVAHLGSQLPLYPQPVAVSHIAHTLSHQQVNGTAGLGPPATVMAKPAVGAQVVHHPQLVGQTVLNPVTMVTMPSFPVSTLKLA
UniProt P53778: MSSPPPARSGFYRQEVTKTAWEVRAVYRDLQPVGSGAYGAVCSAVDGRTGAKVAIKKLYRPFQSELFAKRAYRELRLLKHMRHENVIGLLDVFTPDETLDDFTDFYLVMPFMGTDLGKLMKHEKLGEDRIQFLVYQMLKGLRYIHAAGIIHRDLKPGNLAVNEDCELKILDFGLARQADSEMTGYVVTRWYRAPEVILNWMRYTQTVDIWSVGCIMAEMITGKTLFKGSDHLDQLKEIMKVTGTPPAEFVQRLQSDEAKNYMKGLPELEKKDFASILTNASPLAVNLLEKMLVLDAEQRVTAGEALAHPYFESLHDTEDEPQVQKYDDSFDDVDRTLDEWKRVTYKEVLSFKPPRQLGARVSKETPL
UniProt P33241, whole entry: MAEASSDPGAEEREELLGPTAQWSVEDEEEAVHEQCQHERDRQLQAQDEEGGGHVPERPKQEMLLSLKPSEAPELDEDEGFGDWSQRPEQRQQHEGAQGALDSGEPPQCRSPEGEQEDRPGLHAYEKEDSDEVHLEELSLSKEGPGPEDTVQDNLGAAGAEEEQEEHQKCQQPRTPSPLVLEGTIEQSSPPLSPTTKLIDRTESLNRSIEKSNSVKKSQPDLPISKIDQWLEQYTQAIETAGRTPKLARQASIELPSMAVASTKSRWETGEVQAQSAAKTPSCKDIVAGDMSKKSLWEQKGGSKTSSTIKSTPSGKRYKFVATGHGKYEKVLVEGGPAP
UniProt P34949: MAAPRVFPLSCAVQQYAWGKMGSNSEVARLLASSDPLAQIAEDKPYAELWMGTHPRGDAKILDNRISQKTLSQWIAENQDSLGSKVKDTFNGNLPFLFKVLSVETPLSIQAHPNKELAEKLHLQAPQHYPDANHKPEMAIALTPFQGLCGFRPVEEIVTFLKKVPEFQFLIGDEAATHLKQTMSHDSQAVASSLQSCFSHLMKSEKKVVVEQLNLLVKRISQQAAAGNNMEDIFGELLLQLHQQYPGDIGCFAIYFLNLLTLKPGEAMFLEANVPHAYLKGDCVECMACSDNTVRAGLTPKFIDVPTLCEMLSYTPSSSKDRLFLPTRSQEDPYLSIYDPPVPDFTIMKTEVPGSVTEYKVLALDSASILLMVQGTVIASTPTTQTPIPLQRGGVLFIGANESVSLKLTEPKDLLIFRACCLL
UniProt Q9Y4K4: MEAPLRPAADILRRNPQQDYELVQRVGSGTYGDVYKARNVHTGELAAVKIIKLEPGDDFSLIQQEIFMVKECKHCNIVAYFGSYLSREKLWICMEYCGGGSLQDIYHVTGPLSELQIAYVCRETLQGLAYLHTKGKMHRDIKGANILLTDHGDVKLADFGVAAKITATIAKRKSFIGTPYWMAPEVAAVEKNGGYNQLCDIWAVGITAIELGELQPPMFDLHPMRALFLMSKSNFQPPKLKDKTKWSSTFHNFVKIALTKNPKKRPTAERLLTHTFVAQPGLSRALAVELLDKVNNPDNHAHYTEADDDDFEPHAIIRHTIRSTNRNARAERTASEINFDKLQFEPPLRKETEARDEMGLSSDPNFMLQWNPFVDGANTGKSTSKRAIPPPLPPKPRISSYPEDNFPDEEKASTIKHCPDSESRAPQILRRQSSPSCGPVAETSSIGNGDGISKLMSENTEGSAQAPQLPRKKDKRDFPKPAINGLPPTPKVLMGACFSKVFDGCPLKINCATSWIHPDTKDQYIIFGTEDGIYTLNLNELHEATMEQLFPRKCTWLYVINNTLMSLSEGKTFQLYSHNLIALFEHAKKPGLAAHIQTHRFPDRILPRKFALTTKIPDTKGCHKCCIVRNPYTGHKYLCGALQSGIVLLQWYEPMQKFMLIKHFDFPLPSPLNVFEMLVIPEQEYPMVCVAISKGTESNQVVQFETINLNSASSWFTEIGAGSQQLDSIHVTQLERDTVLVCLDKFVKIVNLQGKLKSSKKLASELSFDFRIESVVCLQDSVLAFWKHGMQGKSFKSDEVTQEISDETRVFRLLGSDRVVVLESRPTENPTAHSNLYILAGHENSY

Each target was assayed with Nc1nc2c(ncn2[C@@H]2O[C@H](COP(=O)(O)OP(=O)(O)OP(=O)(O)O)[C@@H](O)[C@H]2O)c(=O)[nH]1 (assay: dose-dependent thermal stabilisation call (2D-TPP, DLPTP, 10% FDR) (binary (1 = stabilised)); higher = stabilised by the compound). Conditions: system: Jurkat gel-filtered lysate; concentration range 1-500 µM.
With MZB1 (UniProt Q8WU39) the “dose-dependent thermal stabilisation call” value was inactive: 0.
In the case of MLF2 (UniProt Q15773), the “dose-dependent thermal stabilisation call” value is reported as inactive: 0.
For MOCS2 (UniProt O96033), the “dose-dependent thermal stabilisation call” value was inactive: 0.
With MKL1 (UniProt Q969V6) the “dose-dependent thermal stabilisation call” value was inactive: 0.
For MYO9B (UniProt Q13459), the “dose-dependent thermal stabilisation call” value was inactive: 0.
With MNT (UniProt Q99583) the “dose-dependent thermal stabilisation call” value was inactive: 0.
With MAPK12 (UniProt P53778) the “dose-dependent thermal stabilisation call” value was inactive: 0.
With LSP1 (UniProt P33241) the “dose-dependent thermal stabilisation call” value was inactive: 0.
With MPI (UniProt P34949) the “dose-dependent thermal stabilisation call” value was inactive: 0.
For MAP4K5 (UniProt Q9Y4K4), the “dose-dependent thermal stabilisation call” value was active: 1.
